PMC7546007
These are yes or no findings as the source states them, for the method shown. Binding seen in cells or lysates may run through a third protein. Some binding calls cover weakened binding; strength is not graded here. For part of these data: Tags and fused reporters may be left off the sequences shown.

Amino acid sequences for entries named in this document (tags omitted). Residues count along the entry.
UniProt Q13546: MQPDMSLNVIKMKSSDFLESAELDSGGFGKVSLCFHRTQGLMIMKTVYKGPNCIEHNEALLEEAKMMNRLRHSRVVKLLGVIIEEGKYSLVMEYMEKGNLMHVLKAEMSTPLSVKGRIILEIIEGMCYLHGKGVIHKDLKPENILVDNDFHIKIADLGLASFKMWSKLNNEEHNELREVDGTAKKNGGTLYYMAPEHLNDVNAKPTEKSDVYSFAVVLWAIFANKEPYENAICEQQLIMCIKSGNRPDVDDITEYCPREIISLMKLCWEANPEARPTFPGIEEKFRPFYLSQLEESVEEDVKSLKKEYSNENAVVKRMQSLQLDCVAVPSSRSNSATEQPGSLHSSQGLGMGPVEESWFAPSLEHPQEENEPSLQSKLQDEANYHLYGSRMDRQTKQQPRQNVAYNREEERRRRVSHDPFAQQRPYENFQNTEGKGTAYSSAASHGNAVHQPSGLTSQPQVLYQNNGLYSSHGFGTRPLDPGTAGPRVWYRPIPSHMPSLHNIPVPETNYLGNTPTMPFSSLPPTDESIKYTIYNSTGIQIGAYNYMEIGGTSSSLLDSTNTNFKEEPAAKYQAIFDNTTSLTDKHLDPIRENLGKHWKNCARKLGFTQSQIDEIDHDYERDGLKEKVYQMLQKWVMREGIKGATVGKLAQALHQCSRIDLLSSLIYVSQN
UniProt Q14790: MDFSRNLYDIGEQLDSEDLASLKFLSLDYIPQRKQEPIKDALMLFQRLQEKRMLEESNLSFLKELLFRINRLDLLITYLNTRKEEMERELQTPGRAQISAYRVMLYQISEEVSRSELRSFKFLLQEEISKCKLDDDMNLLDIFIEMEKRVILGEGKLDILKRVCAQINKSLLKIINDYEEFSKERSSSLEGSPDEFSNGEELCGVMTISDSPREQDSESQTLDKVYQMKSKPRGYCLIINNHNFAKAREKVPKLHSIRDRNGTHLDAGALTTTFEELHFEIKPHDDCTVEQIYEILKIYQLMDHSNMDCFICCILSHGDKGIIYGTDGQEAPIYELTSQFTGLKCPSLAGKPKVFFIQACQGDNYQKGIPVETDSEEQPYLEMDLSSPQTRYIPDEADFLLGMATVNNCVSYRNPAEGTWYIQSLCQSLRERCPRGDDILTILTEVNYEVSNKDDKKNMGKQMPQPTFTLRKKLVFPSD
UniProt Q99836: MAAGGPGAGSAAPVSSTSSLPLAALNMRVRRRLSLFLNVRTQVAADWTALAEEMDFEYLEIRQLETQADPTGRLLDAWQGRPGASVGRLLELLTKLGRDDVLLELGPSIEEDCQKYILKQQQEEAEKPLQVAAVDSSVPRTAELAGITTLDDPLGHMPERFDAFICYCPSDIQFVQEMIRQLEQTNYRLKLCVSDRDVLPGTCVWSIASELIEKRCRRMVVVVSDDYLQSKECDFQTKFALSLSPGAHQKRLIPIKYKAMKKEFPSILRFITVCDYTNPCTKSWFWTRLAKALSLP
UniProt Q8IUC6: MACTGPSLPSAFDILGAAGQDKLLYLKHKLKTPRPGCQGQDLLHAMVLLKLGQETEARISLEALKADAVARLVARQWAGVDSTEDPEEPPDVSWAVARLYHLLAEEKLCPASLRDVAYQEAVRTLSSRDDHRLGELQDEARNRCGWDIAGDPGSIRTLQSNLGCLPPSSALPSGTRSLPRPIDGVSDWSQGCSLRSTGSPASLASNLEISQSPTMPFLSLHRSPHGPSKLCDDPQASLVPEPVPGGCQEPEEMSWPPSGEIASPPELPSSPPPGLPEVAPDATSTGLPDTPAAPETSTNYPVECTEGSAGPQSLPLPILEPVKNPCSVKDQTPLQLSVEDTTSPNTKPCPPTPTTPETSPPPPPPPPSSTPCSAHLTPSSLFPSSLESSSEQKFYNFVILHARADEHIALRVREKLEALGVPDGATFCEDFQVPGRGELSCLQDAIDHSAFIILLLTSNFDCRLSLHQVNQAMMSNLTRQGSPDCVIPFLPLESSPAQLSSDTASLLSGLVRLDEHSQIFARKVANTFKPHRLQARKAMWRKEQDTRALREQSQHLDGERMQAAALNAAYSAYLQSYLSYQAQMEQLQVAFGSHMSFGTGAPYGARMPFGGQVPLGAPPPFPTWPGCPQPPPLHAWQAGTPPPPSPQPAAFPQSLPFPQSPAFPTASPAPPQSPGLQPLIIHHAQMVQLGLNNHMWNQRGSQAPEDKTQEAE
UniProt P51617: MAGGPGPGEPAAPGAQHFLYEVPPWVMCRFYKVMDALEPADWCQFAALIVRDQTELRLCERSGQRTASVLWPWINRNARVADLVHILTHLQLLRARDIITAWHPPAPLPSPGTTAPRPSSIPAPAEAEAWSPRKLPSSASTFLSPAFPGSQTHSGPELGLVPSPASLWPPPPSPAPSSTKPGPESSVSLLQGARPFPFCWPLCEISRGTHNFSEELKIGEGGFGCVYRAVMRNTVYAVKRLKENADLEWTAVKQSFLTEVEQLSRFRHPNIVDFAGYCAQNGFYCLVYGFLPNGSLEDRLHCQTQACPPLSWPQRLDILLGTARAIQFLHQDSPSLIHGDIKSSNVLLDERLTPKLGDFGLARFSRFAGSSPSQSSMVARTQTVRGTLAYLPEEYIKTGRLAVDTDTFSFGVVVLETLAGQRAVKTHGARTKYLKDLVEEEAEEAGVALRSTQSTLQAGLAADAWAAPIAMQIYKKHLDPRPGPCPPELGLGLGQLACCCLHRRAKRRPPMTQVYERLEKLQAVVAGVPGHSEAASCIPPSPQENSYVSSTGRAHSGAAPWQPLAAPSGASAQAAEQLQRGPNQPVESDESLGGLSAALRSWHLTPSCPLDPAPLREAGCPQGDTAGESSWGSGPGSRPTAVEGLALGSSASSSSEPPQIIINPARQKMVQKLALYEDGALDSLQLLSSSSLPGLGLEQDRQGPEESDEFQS
UniProt O00206, residues 24-839: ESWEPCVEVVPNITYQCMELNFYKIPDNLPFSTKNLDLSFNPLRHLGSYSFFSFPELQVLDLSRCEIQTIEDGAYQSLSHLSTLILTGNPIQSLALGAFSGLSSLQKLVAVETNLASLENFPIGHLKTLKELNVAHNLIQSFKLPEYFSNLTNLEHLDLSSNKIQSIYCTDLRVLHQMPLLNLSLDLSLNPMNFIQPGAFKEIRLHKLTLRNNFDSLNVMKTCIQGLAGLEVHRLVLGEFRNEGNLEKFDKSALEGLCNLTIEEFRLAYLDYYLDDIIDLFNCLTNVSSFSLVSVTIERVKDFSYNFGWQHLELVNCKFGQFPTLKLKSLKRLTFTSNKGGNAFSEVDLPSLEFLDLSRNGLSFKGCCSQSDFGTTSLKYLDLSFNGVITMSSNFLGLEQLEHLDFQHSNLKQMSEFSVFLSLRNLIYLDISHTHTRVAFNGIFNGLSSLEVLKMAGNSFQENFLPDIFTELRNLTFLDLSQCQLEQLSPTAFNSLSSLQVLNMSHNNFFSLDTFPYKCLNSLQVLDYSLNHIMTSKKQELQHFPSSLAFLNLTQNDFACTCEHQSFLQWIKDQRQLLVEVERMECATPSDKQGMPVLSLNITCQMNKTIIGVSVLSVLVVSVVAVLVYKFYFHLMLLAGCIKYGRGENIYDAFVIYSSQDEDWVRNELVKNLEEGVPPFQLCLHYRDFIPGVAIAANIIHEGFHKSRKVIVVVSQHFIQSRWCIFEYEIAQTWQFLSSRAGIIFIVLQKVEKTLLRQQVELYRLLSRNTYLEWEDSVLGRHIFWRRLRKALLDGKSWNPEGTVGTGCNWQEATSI

How the values were obtained:
[1] = target: receptor-interacting protein 1 (RIP1) (human (endogenous in HK-2)) (UniProt Q13546); test: co-IP; immunoprecipitation of endogenous RIP1 from RIPA lysates of Flag-Pellino1-transfected, LPS-stimulated HK-2 cells with or without hypoxia; blots for Flag, TRIF and caspase-8
[2] = target: caspase-8 (human (endogenous in HK-2)) (UniProt Q14790); test: co-IP; immunoprecipitation of endogenous caspase-8 from RIPA lysates of HK-2 cells (LPS plus hypoxia; LPS with Pellino1 siRNA; with DAPK1 inhibitor or DAPK1 siRNA); blots for TRIF and RIP1
[3] = target: T1, Flag-tagged wild-type Pellino1 (human) (UniProt Q96FA3); test: co-IP; immunoprecipitation of Flag-Pellino1 with anti-Flag from RIPA lysates of transfected HK-2 cells stimulated with LPS with or without hypoxia (also with DAPK1 inhibitor or DAPK1 siRNA); blots for TRIF, RIP1, DAPK1
T1 sequence: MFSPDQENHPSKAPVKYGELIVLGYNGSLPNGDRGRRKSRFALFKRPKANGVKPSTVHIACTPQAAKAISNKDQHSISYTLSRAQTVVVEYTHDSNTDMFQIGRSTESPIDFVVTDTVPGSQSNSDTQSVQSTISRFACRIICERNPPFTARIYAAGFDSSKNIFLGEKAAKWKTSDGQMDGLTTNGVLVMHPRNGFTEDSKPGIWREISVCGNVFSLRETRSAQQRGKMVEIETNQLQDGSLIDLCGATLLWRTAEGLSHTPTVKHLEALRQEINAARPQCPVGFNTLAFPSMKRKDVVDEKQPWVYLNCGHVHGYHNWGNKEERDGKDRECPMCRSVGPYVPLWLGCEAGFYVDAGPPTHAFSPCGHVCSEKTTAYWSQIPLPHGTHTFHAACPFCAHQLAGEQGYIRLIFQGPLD

[4] = target: myeloid differentiation primary response gene 88 (MyD88) (human (endogenous in HK-2)) (UniProt Q99836); test: co-IP; immunoprecipitation of endogenous MyD88 from RIPA lysates of LPS-stimulated HK-2 cells with or without hypoxia (also Pellino1 knockout cells); blots for TLR4, IRAK1 and TRAF6

| Substance | binding [1] | binding [2] | binding [3] | binding [4] |
| --- | --- | --- | --- | --- |
| TIR domain-containing adapter-inducing interferon β (TRIF) (from UniProt Q8IUC6 1-712) | binds | binds | binds |  |
| interleukin-1 receptor-associated kinase 1 (IRAK1) (from UniProt P51617 1-712) (enzyme) |  |  |  | binds |
| receptor-interacting protein 1 (RIP1) (from UniProt Q13546 1-671) (enzyme) |  |  | binds |  |
| toll-like receptor 4 (TLR4) (from UniProt O00206 24-839) |  |  |  | binds |
